Results from PubChem BioAssay AID2685 (National Center for Advancing Translational Sciences (NCATS), 2010).
Out of some 320,000 compounds screened, about 2,100 (0.66%) were called active. Inconclusive results, whose numbers are uncertain, are shown with a selection of clear calls. The call rests on the fitted dose curve; in most records, active means well fitted inhibition curve with a large enough effect in the signal ratio, with a control signal flat (not every such curve was filed as active); inconclusive means small, poorly fitted or top-dose-only effect, or effect the other way, or a change in a side signal; inactive means flat fitted curve, though single readings scatter; the % refers to the signal ratio. Potencies beside an inconclusive call are fits to weak or partial responses and may not hold up.

test: qHTS Assay for Lipid Storage Modulators in Drosophila S3 Cells; conditions: BODIPY lipid droplet fluorescence, 18-24 h, cells fed with added oleic acid; lipid storage change, negative = inhibition: at 46.1 µM (top of the series) unless noted
In short: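 Laser-scanning cytometry quantifies lipid droplet accumulation (500–530 nm total intensity; droplet/cell object ratio) in oleic acid-fed (400 uM added) Drosophila S3 cells treated with a concentration series. 20 uM Triacsin C defined 100% inhibition.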
On the % scale 0 is the no-effect control and ±100 the full control effect; potency means the concentration at half of the fitted maximal effect.

| Compound | Potency | lipid storage change, negative = inhibition |
| --- | --- | --- |
| COCCn1c(CN2CCN(c3ccc(F)cc3)CC2)nc2c1c(=O)n(C)c(=O)n2C | inconclusive: 29.1 µM [falling, single point] |  |
| N#Cc1ccc(C(=O)OCCCc2cc3ccccc3c(=O)o2)cc1 |  | inactive |
| O=C(O)CC(NCc1ccco1)C(=O)OCCc1ccccc1 (stereo unspecified) |  | inconclusive: 13.2% |
| CC1=CC(C)(C)NC(=S)N1c1ccccc1 | inconclusive: 0.184 µM [falling, full curve, poor fit] |  |
| COc1cc(-c2nnc(-c3cccs3)o2)cc(OC)c1OC | inconclusive: 1.46 µM [activator, full curve] |  |
| COC1=C(Nc2ccccc2OC)C(=O)c2ccccc2C1=O | inconclusive: 29.1 µM [cytotoxic, single point] |  |
| O=C(Cc1ccc(Cl)cc1)NC1CCS(=O)(=O)C1 (stereo unspecified) |  | inconclusive: 232% |
| O=C(c1cnn(-c2ccc(Cl)cc2)c1)c1ccccc1O |  | inconclusive: 14.1% |
| COc1cc(C)ccc1OCCCOc1c(Cl)cccc1Cl | inconclusive: 23.1 µM [activator, single point] |  |
| CC(=O)C1=C(O)C(=O)N(CCc2c[nH]c3ccccc23)C1c1cccc(O)c1 (stereo unspecified) | active: 20.6 µM |  |
| COC(=O)c1cccc(Cn2nnc3ccccc3c2=O)c1 | inconclusive: 0.58 µM [rising, partial curve] |  |
| CC(C)Cn1c(-c2cccnc2)nc2c1c(=O)[nH]c(=O)n2CC(C)C | inconclusive: 29.1 µM [activator, single point] |  |
| COc1cccc(CNS(=O)(=O)c2ccc3c(c2)N(C(C)=O)CCO3)c1 |  | inconclusive: -6.17% |
| CC(C)n1c(=O)n(CC(=O)NCC2CCCO2)c(=O)c2c3c(sc21)COC(C)(C)C3 (stereo unspecified) |  | inconclusive: 27.2% |
| CCc1ccccc1NC(=O)c1cccc(NC(=O)/C=C/c2ccco2)c1 | inconclusive: 16.4 µM [falling, partial curve, poor fit] |  |
| O=C(/C=C/c1ccco1)NCC1COc2ccccc2O1 (stereo unspecified) |  | inconclusive: 4.87% |
| CN(C)S(=O)(=O)c1ccc(N2CCCC2)c(C(=O)N2CCN(S(=O)(=O)c3ccccc3F)CC2)c1 |  | inconclusive |
| O=C(Nc1ccc2oc(-c3ccccc3)nc2c1)c1ccc2c(c1)OCCO2 |  | inconclusive: 26.4% |
| Cc1cccc(N2C(=S)N=C(Nc3c(C)cccc3C)C23CCOC(C)(C)C3)c1 (stereo unspecified) |  | inconclusive: -11.2% |
| COc1cc(CNCc2cc(OC)ccc2OC)cc(OC)c1 | inconclusive: 29.1 µM [activator, single point] |  |
| Cc1cc(C)n(CC(O)COc2ccc(Cl)cc2Cl)n1 (stereo unspecified) |  | inconclusive: 69.2% |

Fetched by structure from the entries so far:

| Compound | Potency | lipid storage change, negative = inhibition |
| --- | --- | --- |
| CCc1ccccc1NC(=O)c1cccc(NC(=O)/C=C/c2ccco2)c1 | inconclusive: 16.4 µM [falling, partial curve, poor fit] |  |
| CC1=CC(C)(C)NC(=S)N1c1ccccc1 | inconclusive: 0.184 µM [falling, full curve, poor fit] |  |
